No constants are given. Whether binding was seen depends on the method and setting. Binding can be weak; no strength is given.

The source of these data is patent US20150052630A1, “Methods and Compositions for Obtaining Useful Plant Traits” (Board of Regents of the University of Nebraska, priority 2013, published 2015).

The target of this assay is RNA binding protein; mRNA processing, RNA processing (AT3G11964) (Arabidopsis). In words: yeast 2-hybrid.

B1: Arabidopsis MSH1 (MUTS HOMOLOG 1), full-length (protein)
chain: MHWIATRNAVVSFPKWRFFFRSSYRTYSSLKPSSPILLNRRYSEGISCLRDGKSLKRITTASKKVKTSSDVLTDKDLSHLVWWKERLQTCKKPSTLQLIERLMYTNLLGLDPSLRNGSLKDGNLNWEMLQFKSRFPREVLLCRVGEFYEAIGIDACILVEYAGLNPFGGLRSDSIPKAGCPIMNLRQTLDDLTRNGYSVCIVEEVQGPTPARSRKGRFISGHAHPGSPYVYGLVGVDHDLDFPDPMPVVGISRSARGYCMISIFETMKAYSLDDGLTEEALVTKLRTRRCHHLFLHASLRHNASGTCRWGEFGEGGLLWGECSSRNFEWFEGDTLSELLSRVKDVYGLDDEVSFRNVNVPSKNRPRPLHLGTATQIGALPTEGIPCLLKVLLPSTCSGLPSLYVRDLLLNPPAYDIALKIQETCKLMSTVTCSIPEFTCVSSAKLVKLLEQREANYIEFCRIKNVLDDVLHMHRHAELVEILKLLMDPTWVATGLKIDFDTFVNECHWASDTIGEMISLDENESHQNVSKCDNVPNEFFYDMESSWRGRVKGIHIEEEITQVEKSAEALSLAVAEDFHPIISRIKATTASLGGPKGEIAYAREHESVWFKGKRFTPSIWAGTAGEDQIKQLKPALDSKGKKVGEEWFTTPKVEIALVRYHEASENAKARVLELLRELSVKLQTKINVLVFASMLLVISKALFSHACEGRRRKWVFPTLVGFSLDEGAKPLDGASRMKLTGLSPYWFDVSSGTAVHNTVDMQSLFLLTGPNGGGKSSLLRSICAAALLGISGLMVPAESACIPHFDSIMLHMKSYDSPVDGKSSFQVEMSEIRSIVSQATSRSLVLIDEICRGTETAKGTCIAGSVVESLDTSGCLGIVSTHLHGIFSLPLTAKNITYKAMGAENVEGQTKPTWKLTDGVCRESLAFETAKREGVPESVIQRAEALYLSVYAKDASAEVVKPDQIITSSNNDQQIQKPVSSERSLEKDLAKAIVKICGKKMIEPEAIECLSIGARELPPPSTVGSSCVYVMRRPDKRLYIGQTDDLEGRIRAHRAKEGLQGSSFLYLMVQGKSMACQLETLLINQLHEQGYSLANLADGKHRNFGTSSSLSTSDVVSIL
As to B1, the binding result was “binds”.
